Laboratory results as given in patent US12264185B2, “Stabilized BCL9 peptides for treatment of aberrant Wnt signaling” (WntRx Pharmaceuticals Inc., priority 2015, dated 2025).
For some assays here: The name of at least one read-out is uncertain. For some assays here: For at least one compound, name, drawing or mass did not settle the structure.

Assays:
[1] = Pharmacokinetics in male ICR mice; settings: 5 mg/kg intravenously
β-catenin = biological target: T1, β-catenin (Homo sapiens, UniProt P35222); assay: ALPHA screen binding assay; settings: biotinylated polypeptide
T1 sequence (P35222 1-781): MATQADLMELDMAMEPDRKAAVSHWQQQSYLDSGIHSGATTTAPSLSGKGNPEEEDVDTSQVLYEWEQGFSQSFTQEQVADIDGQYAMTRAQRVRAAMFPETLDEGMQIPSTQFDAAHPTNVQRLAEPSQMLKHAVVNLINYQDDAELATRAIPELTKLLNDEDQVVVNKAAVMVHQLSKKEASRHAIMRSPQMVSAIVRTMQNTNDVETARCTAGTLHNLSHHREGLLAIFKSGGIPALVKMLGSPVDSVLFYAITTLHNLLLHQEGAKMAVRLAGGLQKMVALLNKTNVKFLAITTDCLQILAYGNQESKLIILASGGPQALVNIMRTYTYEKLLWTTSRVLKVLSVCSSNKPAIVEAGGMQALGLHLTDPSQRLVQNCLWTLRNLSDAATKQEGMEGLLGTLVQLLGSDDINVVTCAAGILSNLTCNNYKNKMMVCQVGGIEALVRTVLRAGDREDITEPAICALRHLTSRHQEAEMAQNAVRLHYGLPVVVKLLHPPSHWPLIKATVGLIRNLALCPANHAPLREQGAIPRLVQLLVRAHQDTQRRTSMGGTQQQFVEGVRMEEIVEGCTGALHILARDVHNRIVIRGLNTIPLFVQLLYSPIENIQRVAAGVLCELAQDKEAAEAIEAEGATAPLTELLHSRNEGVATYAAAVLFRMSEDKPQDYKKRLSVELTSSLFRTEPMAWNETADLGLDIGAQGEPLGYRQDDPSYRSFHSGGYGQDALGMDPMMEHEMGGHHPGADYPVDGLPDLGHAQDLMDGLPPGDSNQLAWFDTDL

Row | Compound | Cmax, times greater than the in vitro IC50 [1] | Kd (β-catenin)
1 | CC[C@H](C)[C@@H]1NC(=O)[C@@](C)(NC(=O)[C@H](CCCNC(=N)N)NC(=O)[C@H](CC(C)C)NC(=O)[C@@H](NC(=O)[C@H](CCC(N)=O)NC(=O)[C@H](CC(C)C)NC(C)=O)[C@@H](C)O)CCCC=CCCC[C@@](C)(C(=O)N[C@@H](CC(C)C)C(=O)N[C@@H](Cc2ccc3ccccc3c2)C(N)=O)NC(=O)[C@H](CCCNC(=N)N)NC(=O)[C@H](CCC(N)=O)NC1=O [WX-024, LQTLRXaa1IQRXaa2L] | 15 times | –
2 | CC[C@H](C)[C@H](NC(=O)[C@H](CC(=O)O)NC(=O)[C@H](CCCNC(=N)N)NC(=O)[C@H](CC(C)C)NC(=O)[C@@H](NC(=O)[C@H](CCC(N)=O)NC(=O)[C@H](CC(C)C)NC(=O)[C@H](CO)NC(=O)[C@H](CCCNC(=N)N)NC(=O)[C@H](CCC(=O)O)NC(=O)[C@H](CCCNC(=N)N)NC(=O)[C@H](Cc1c[nH]cn1)NC(=O)[C@H](CCC(=O)O)NC(=O)[C@H](CC(C)C)NC(=O)[C@H](CCC(N)=O)NC(=O)[C@H](CCC(=O)O)NC(=O)[C@H](CCC(N)=O)NC(=O)[C@H](CO)NC(=O)[C@H](CC(C)C)NC(=O)CNC(=O)[C@H](CC(=O)O)NC(=O)[C@@H]1CCCN1)[C@@H](C)O)C(=O)N[C@@H](CCC(N)=O)C(=O)N[C@@H](CCCNC(=N)N)C(=O)N[C@@H](CCSC)C(=O)N[C@@H](CC(C)C)C(=O)N[C@@H](Cc1ccccc1)C(=O)N1CCC[C@H]1C(=O)N[C@@H](CC(=O)O)C(=O)N[C@@H](CCC(=O)O)C(=O)O | – | 20 nM
